{"source": "paper PMC8249388", "target": "T1, GST-Bicc1-KH (UniProt Q99MQ1)", "T1 sequence (Q99MQ1 whole entry, looked up)": "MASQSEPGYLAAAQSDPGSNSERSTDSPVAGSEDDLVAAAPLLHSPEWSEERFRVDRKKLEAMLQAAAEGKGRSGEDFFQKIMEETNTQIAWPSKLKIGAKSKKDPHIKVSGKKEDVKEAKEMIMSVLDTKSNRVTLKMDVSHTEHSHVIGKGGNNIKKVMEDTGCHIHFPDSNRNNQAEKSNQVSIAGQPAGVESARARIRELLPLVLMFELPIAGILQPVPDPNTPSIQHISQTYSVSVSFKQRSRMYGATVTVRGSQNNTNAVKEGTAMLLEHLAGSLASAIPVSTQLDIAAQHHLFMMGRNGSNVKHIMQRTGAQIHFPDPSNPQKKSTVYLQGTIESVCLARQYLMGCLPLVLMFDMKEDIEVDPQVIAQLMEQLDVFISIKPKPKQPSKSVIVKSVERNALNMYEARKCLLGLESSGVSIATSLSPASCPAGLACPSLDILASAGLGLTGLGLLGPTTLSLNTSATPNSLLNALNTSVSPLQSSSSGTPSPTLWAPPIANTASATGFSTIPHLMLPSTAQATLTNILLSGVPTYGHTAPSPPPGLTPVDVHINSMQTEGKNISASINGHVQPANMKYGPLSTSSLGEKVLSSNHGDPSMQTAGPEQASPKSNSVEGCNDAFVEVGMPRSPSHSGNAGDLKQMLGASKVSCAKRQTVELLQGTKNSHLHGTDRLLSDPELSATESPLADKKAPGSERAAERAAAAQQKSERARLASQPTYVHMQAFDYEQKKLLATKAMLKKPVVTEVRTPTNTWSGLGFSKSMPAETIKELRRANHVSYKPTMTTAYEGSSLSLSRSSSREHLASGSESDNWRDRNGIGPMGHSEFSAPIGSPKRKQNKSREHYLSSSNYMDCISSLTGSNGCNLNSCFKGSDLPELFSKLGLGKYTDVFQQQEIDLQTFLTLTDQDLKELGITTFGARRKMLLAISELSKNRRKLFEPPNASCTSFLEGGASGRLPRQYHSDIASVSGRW", "test": "competition EMSA", "conditions": "vs labelled 66-110, 200 nM protein; 10 mM Tris-HCl pH 8, 100 mM KCl, 2.5 mM MgCl2, 2.5% glycerol, 1 mM DTT, 1 ug yeast tRNA in 20 uL, on ice 30 min; 1 pmol tagged RNA + 2.5 pmol DNA probe; 5% native PAGE; recombinant protein; letters put together from the description", "note": "The exact form of at least one protein or probe is not confirmed. No signal at the amounts used counts as a negative. At least one verdict was read from the data and is not stated in words by the source."}
{"sequence": "UGAAGCCCUGGGUUCUAUUCGUAUGUGAUAUGUGGAGGUUAAAAA [226-270 WT (distal)]", "values": [{"measurement": "binding result", "value": "no binding"}]}
